Results as given in paper PMC7719180.
Results are given in words; binding and its absence hold for the method and conditions named. Binding seen in cells or lysates may run through a third protein. Some binding calls cover weakened binding; strength is not graded here. Where a sequence is shown, tags or fusion partners need not be part of it.

The chains behind the UniProt entries cited, without tags or fusion partners.
UniProt P14618: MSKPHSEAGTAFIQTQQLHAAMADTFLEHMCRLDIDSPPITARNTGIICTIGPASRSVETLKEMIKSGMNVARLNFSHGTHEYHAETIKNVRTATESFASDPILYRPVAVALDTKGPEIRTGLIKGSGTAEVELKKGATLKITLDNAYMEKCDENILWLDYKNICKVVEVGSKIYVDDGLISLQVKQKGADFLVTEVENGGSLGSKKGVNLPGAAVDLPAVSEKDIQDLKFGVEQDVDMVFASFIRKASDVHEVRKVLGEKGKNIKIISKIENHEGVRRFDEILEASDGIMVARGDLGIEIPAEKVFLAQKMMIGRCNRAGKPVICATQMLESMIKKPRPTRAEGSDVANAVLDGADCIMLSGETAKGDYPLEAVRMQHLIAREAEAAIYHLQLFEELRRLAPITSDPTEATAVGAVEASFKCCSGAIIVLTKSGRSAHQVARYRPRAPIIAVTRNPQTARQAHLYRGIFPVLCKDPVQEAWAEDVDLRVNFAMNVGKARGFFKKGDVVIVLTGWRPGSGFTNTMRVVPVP

Target: T1, HA-HDAC8 (histone deacetylase 8) (UniProt Q9BY41)
T1 sequence: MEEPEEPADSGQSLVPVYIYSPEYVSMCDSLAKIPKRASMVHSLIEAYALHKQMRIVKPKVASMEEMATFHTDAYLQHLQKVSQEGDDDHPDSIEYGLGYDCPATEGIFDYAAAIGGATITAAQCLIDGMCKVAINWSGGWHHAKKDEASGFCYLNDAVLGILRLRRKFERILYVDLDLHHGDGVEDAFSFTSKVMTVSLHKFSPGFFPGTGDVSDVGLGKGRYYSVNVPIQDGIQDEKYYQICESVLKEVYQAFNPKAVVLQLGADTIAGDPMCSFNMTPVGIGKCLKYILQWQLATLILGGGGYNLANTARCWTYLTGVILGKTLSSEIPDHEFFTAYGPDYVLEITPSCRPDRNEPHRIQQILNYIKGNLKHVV
Assay: co-IP; HEK293T co-transfected with HA- and Flag-tagged proteins, 48 h; lysate with anti-HA beads overnight at 4 °C; western blot with Flag and HA antibodies

Flag-PKM2 (pyruvate kinase M2) (from UniProt P14618 1-531) (enzyme)
binding: binds
